Measured values as given in paper PMC10849765.
No constants are given. Whether binding was seen depends on the method and setting. In cells and extracts the contact can be indirect. These calls come from enrichment with a bait or labelling near it, and not all partners need be listed.

The chains behind the UniProt entries cited, without tags or fusion partners. Where a name states a change or a piece, a line headed by the entry shows the natural chain unless it says otherwise. A line that says so, or that is headed by a name, gives the form on record, which may keep a tag or linker.
ARRB1-Δexon 13 (β-arrestin 1 isoform lacking exon 13) (P49407, form named): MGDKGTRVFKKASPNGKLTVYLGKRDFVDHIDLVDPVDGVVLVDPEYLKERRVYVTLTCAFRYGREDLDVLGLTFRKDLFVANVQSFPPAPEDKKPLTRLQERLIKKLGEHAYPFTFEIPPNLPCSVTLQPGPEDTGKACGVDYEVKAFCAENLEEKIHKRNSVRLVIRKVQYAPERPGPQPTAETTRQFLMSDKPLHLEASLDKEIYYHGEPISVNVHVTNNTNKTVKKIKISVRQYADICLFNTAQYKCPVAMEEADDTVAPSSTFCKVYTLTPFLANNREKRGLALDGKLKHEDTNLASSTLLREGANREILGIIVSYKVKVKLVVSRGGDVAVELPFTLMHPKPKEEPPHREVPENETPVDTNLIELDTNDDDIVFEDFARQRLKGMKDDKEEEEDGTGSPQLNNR
UniProt Q62167: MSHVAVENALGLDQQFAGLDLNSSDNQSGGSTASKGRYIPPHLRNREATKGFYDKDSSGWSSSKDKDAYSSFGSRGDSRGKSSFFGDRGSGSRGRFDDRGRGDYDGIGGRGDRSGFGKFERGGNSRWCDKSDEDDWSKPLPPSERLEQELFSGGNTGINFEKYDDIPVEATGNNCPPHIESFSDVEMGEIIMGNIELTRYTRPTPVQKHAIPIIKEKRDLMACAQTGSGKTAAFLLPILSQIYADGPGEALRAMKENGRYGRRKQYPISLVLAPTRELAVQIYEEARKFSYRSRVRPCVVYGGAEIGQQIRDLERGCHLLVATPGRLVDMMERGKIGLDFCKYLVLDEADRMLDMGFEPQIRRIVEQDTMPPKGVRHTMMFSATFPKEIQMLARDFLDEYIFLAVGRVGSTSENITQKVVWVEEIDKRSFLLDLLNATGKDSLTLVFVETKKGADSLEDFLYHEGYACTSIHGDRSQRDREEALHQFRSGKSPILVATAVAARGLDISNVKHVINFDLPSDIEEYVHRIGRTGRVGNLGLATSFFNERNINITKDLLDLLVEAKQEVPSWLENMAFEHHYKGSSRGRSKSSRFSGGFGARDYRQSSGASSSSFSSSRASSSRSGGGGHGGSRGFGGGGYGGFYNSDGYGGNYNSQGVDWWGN
UniProt P06733: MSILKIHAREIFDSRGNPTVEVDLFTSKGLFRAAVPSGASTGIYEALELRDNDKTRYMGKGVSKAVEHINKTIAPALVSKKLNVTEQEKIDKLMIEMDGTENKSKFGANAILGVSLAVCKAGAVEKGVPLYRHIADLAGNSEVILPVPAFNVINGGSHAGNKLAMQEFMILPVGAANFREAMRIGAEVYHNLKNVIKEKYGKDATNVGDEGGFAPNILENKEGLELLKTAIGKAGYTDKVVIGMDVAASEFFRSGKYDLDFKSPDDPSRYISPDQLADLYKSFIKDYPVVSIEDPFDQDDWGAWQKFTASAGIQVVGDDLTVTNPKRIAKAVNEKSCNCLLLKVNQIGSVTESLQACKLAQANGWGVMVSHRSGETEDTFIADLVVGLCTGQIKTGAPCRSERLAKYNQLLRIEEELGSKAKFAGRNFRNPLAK

How the values were obtained:
[1] = biological target: T1, asparagine endopeptidase (AEP), human, re-expressed in AEP-KO mouse embryonic fibroblasts (human) (UniProt Q99538); assay: affinity purification with mass spectrometry; IP with an anti-AEP antibody (1:50) from lysate (IP buffer) of lgmn-KO MEFs re-expressing human LGMN; MS of the immunoprecipitate
T1 sequence: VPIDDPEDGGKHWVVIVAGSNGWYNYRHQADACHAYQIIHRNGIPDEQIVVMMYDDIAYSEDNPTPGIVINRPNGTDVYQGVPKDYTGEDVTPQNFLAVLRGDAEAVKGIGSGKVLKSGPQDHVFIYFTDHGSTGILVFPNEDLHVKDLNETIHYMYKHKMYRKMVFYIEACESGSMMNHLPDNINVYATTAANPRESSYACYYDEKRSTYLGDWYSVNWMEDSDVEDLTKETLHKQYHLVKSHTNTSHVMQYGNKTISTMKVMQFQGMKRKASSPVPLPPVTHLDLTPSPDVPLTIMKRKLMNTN

[2] = biological target: ARRB1-Δexon 13 (β-arrestin 1 isoform lacking exon 13) (human) (UniProt P49407); assay: affinity purification with mass spectrometry; ARRB1-Δexon 13 immunoprecipitated, mass spectrum assay

| Molecule | binding [1] | binding [2] |
| --- | --- | --- |
| DEAD-box helicase 3 X-linked (DDX3X), endogenous in mouse embryonic fibroblasts (from UniProt Q62167 1-662) | binds |  |
| ENO1 (from UniProt P06733 1-434) (enzyme) |  | binds |
| ALDOA (enzyme, UniProt P04075 1-364) MPYQYPALTPEQKKELSDIAHRIVAPGKGILAADESTGSIAKRLQSIGTENTEENRRFYRQLLLTADDRVNPCIGGVILFHETLYQKADDGRPFPQVIKSKGGVVGIKVDKGVVPLAGTNGETTTQGLDGLSERCAQYKKDGADFAKWRCVLKIGEHTPSALAIMENANVLARYASICQQNGIVPIVEPEILPDGDHDLKRCQYVTEKVLAAVYKALSDHHIYLEGTLLKPNMVTPGHACTQKFSHEEIAMATVTALRRTVPPAVTGITFLSGGQSEEEASINLNAINKCPLLKPWALTFSYGRALQASALKAWGGKKENLKAAQEEYVKRALANSLACQGKYTPSGQAGAAASESLFVSNHAY |  | binds |
